Reference: paper PMC9654362
Results are given in words; binding and its absence hold for the method and conditions named. Binding seen in cells or lysates may run through a third protein. Some entries that bind do so weakly or less than the wild type.

What was measured:
[1] = biological target: 3xFlag-FTH1 (ferritin heavy chain, H Ferritin subunit) (human) (UniProt P02794); test: co-IP; HEK-293T transfected with 3xFlag-FTH1 or 3xFlag control vector; lysates on ANTI-FLAG M2 affinity gel; Western blot with anti-PRDX6 and anti-Flag
[2] = biological target: endogenous FTH1 (ferritin heavy chain) (human (endogenous in HEK-293T)) (UniProt P02794); test: co-IP; endogenous proteins in wild-type HEK-293T; RIPA lysate incubated overnight at 4 °C with 1 ug anti-FTH1 antibody or non-immune serum, then Protein A/G plus-agarose; blot with anti-FTH1 or anti-PRDX6
[3] = biological target: 3xFlag-FTH1 (ferritin heavy chain) expressed in NCI-H460 cells (human) (UniProt P02794); test: co-IP; NCI-H460 transfected with Flag-FTH1 or 3x-Flag control vector; lysates on anti-Flag M2 resin; blot with anti-PRDX6 and anti-Flag

| binding [1] | binding [2] | binding [3] | Binder |
| --- | --- | --- | --- |
| binds | binds | – | Peroxiredoxin 6 (PRDX6), endogenous in HEK-293T (enzyme, UniProt P30041 1-224) MPGGLLLGDVAPNFEANTTVGRIRFHDFLGDSWGILFSHPRDFTPVCTTELGRAAKLAPEFAKRNVKLIALSIDSVEDHLAWSKDINAYNCEEPTEKLPFPIIDDRNRELAILLGMLDPAEKDEKGMPVTARVVFVFGPDKKLKLSILYPATTGRNFDEILRVVISLQLTAEKRVATPVDWKDGDSVMVLPTIPEEEAKKLFPKGVFTKELPSGKKYLRYTPQP |
| – | – | binds | Peroxiredoxin 6 (PRDX6), endogenous in NCI-H460 (enzyme, UniProt P30041 1-224) MPGGLLLGDVAPNFEANTTVGRIRFHDFLGDSWGILFSHPRDFTPVCTTELGRAAKLAPEFAKRNVKLIALSIDSVEDHLAWSKDINAYNCEEPTEKLPFPIIDDRNRELAILLGMLDPAEKDEKGMPVTARVVFVFGPDKKLKLSILYPATTGRNFDEILRVVISLQLTAEKRVATPVDWKDGDSVMVLPTIPEEEAKKLFPKGVFTKELPSGKKYLRYTPQP |
